This note sets out measurements from paper PMC3166142.

Protein sequences, listed by entry. Tags and fused reporters are not part of them.
UniProt Q9BXW9, whole entry K561R: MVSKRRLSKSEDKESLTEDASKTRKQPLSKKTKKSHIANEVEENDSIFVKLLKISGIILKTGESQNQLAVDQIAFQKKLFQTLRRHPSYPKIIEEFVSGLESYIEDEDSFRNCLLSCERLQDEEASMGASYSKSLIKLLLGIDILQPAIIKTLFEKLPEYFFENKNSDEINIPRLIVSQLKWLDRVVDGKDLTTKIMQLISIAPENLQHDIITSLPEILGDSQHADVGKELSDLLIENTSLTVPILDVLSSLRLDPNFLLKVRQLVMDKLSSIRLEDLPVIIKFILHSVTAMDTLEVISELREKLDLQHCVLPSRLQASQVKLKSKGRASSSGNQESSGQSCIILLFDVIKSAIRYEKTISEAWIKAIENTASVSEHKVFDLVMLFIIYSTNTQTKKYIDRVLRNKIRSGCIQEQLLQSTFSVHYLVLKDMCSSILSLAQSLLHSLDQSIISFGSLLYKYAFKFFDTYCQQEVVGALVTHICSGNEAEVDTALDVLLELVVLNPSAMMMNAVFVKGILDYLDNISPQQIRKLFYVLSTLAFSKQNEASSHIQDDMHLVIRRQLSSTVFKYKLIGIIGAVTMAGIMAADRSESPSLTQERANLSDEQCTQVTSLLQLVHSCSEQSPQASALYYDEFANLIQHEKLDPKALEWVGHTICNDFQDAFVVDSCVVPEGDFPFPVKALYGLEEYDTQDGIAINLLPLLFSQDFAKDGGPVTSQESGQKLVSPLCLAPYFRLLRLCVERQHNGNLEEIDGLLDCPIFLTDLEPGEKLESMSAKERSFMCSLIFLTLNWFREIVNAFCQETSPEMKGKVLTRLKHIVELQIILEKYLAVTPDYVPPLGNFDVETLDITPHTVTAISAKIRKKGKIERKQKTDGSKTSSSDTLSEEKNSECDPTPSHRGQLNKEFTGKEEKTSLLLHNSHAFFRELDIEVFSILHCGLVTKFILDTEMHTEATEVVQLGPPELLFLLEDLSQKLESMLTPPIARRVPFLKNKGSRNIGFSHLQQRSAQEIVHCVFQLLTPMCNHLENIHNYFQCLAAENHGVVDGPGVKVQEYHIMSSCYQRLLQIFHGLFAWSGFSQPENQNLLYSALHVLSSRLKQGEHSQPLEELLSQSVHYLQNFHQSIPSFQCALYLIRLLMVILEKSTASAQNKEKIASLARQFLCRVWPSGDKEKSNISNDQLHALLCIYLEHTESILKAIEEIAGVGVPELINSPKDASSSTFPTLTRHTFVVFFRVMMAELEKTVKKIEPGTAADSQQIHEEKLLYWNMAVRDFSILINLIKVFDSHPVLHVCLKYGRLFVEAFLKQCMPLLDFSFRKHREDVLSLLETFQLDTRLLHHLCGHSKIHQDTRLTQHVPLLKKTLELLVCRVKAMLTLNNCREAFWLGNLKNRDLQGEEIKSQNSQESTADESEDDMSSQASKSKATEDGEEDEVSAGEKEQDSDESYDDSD

What all share (assay): EMSA
One series addresses FANCD2 (Homo sapiens) (UniProt Q9BXW9). To be noted: 200 ng protein; 20 mM HEPES pH 7.6, 5 mM EDTA, 1 mM DTT, 150 mM KCl, 50 mM (NH4)2SO4, 1% Tween-20; 20 min, room temperature; native 4% PAGE; recombinant …; protein details: His6 removed by thrombin; label: 32P.
In a further series the target is Flag-FANCD2 WT (UniProt Q9BXW9). Conditions: 2 ug nuclear extract (Methods print 2 mg); 20 mM HEPES pH 7.6, 5 mM EDTA, 1 mM DTT, 150 mM KCl, 50 mM (NH4)2SO4, 1% Tween-20; 20 min, room temperature; native 4% PAGE; protein in an extract; protein details: Flag; label: 32P.
A further series has as its target Flag-FANCD2KR K561R (UniProt Q9BXW9). To be noted: 2 ug nuclear extract, similar to WT; 20 mM HEPES pH 7.6, 5 mM EDTA, 1 mM DTT, 150 mM KCl, 50 mM (NH4)2SO4, 1% Tween-20; 20 min, room temperature; native 4% …; protein in an extract; protein details: Flag; label: 32P.

The exact form of at least one protein or probe is not confirmed. For some assays here: A weaker result is weaker than the reference pair of the same experiment. For some assays here: At least one result comes from cells or an extract, where the contact may be indirect.

Turning to “GGGTCTGTGAATTCCCGGGGGT (double strand) [kB2]”, the binding result with FANCD2 (Homo sapiens) is reported as “binds more weakly”.

Take “GAGGATCCGGACCCCCCCTTAA (double strand) [kB1 mut]”: in the series with FANCD2 (Homo sapiens), the binding result is on record as “binds more weakly”.

On to “GAGTATGGGGACCCCCCCTTAA (double strand) [kB1]”, for which the binding result with Flag-FANCD2 WT and with Flag-FANCD2KR K561R was “binds” in each case. On to “GCTCATGGGTTTCTCCACCAAG (double strand) [k3]”, for which, in the series with FANCD2 (Homo sapiens), the binding result is “binds more weakly”.
